Results taken from patent US20090155785A1, “REAL-TIME COLORIMETRIC SCREENING INHIBITORS OF ENDONUCLEASE WITH GOLD NANOPARTICLE SUBSTRATE” (NORTHWESTERN UNIVERSITY, priority 2007, published 2009).
For at least one compound, name, drawing or mass did not settle the structure.

What was measured:
duplex DNA = test: Melting temperature of duplex DNA (without nanoparticles) in the presence of DNA binding molecule; details: DNA duplex 2.0 μM, sodium phosphate buffer 10 mM pH 7.0, NaCl 100 mM, DNA binding molecule 5.0 μM, control 61.0
DNase I [1] = test: Colorimetric DNase I inhibition assay, hybridized gold nanoparticle aggregates without linker oligonucleotide (Example 1); type: biochemical; details: inhibitor 1 μM, DNase I 15 units/ml, extinction at 520 nm, room temperature; control 6.8 min
Procedure: In addition to screening enzyme activity, one can easily use the assay to evaluate the efficiency of inhibitors of DNase I. In a typical screening experiment, DNase I (15 units/ml) was added to solutions of the DNA-linked gold nanoparticle aggregates in the presence of one of the following DNA binding molecules: amsacrine (AMSA), anthraquinone-2-carboxylic acid (AQ2A), 9-aminoacridine (9-AA), ellipticine (EIPT), daunorubicin (DNR), ethidium bromide (EB) and 4′,6-diamidedino-2-phenylindole (DAPI) (1 μM), respectively. […] Extinction was monitored at 520 nm as a function of time (sample scan rate=5 min^−), and the color of the solution was followed with the naked eye. […] The trend is determined based on TH, which is consistent with the relative binding affinities of the inhibitors to DNA, as determined by measuring the melting temperature of the duplex DNA in the presence of each DNA-binding molecule (FIG. 6 and Table 1 below).
The relative binding affinities of the inhibitors to DNA are consistent with the hydrolysis time (TH) of the aggregates by DNase I in the presence of a specific inhibitor. TH is determined by measuring the extinction at 520 nm and determining when half of the particles composing the aggregates have been released. […]

DNase I [2] = test: Colorimetric DNase I inhibition assay, ligated gold nanoparticle aggregates with linker oligonucleotide (Example 2); type: biochemical; details: inhibitor 1 μM, DNase I 15 units/ml, extinction at 520 nm, control 9.5 min
Procedure: A typical screening experiment was slated by adding the DNase I to solutions of the gold nanoparticle aggregates in the presence of one of the DNA binding molecules, amsacrine (AMSA), anthrquinone-2-carboxylic acid (AQ2A), 9-aminoacridine (9-AA), ellipticine (EIPT), daunorubicin (DNR), ethidium bromide (EB) and 4′,6-diamidedino-2-phenylindole (DAPI) (1 μM), respectively. The color changes of the solutions were monitored at 520 nm by UV-vis spectrometry over time (sample scan rate=2 min^−1). The inhibitors can decrease DNase I activity and increase the hydrolysis time and the corresponding time required for a color change in the solution. […]
High-throughput screening is widely used for the identification of hit compounds from combinatorial libraries. […] The trend of potencies of inhibitors was determined to be DAPI>EB>DNR>9-AA, EIPT, and AQ2A>AMSA, which is consistent with the control experiments involving serial analysis of each inhibitors with nanoparticle-free duplex DNA. […]
The prepared gold nanoparticle aggregate was washed (3 times) with DNase I buffer (10 mM sodium phosphate buffer pH 7.0, 0.25 mM MgCl2). The assay was initiated by adding DNase I (10-50 units/ml) and the hydrolysis kinetics were monitored by a UV-vis spectrum at the extinction of 520 nm with stirring at room temperature.

CC[n+]1c(-c2ccccc2)c2cc(N)ccc2c2ccc(N)cc21 [EB, ethidium bromide]
Tm (melting temperature of duplex DNA in the presence of endonuclease inhibitor) (duplex DNA; Table 1): 65.5 °C
Tm (melting temperature of duplex DNA in the presence of endonuclease inhibitor) (duplex DNA; Table 2, at 260 nm): 65.5 °C
TH (time at which 50% of the aggregate is hydrolyzed by DNase I) (DNase I [1]): 48.8 min
t (releasing time; time required to hydrolyze 50% of the aggregates) (DNase I [2]): 82.0 min
